Reference: article doi:10.1101/2021.11.04.467353
Results are given in words; binding and its absence hold for the method and conditions named. For some assays here: Binding seen in cells or lysates may run through a third protein. Some results given as binding are weak or reduced against the parent protein; the word gives no strength.

Amino acid sequences for entries named in this document (tags omitted). Residues count along the entry.
UniProt A0JNW5, 1312-1464: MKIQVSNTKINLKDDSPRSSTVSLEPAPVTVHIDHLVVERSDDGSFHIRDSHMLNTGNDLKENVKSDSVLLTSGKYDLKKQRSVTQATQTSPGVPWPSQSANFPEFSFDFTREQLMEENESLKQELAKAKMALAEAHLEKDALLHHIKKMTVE
UniProt P63167, whole entry: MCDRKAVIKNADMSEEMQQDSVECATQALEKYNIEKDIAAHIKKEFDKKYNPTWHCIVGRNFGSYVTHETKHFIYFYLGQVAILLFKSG

What was measured:
[1] = target: MBP-SHIP164_(1312-1464) (human) (UniProt A0JNW5); assay: SEC
[2] = target: MBP-SHIP164_(1312-1464) (human) (UniProt A0JNW5); assay: pull-down

binding [1]: binds | binding [2]: binds
Substance: untagged LC8 (DYNLL1) (from UniProt P63167 1-89)
